Assay results taken from the M2OR odorant receptor database.
This is one part of the list. The calls were merged from several studies; some rest on single wells.

Test system: T1, OR9Q2
T1 sequence (whole entry): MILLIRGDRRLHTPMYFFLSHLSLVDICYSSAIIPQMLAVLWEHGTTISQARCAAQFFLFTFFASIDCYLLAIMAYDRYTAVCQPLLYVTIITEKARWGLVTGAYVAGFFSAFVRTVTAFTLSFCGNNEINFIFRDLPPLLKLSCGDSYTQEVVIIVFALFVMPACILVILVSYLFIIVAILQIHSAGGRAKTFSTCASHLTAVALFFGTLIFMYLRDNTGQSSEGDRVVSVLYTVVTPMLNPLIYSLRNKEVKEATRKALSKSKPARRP
Details: stereoisomer not certain
Outline: (§1)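 Values were gathered from published papers (main text and supplementary material), with extra details requested from the original authors when needed, and checked for typos and inconsistencies. Each receptor–molecule pair is called responsive (active) if the original authors judged the measured signal statistically different from baseline, and non-responsive (inactive) otherwise. Assay methods varied by source, often transient mammalian cell-line luciferase assays. Recorded details include cell line, G-protein, co-transfected protein and tags.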

Row | Structure (SMILES) | odorant receptor agonist call
1 | CCCCCCCCCCC=O | inactive
2 | CCCCCCOC(=O)CCC | inactive
3 | CCC1(O)C2(C)CCC(C2)C1(C)C (centres undefined) | inactive
4 | CC1=NC(C)SC1C (centres undefined) | active
5 | CC(C)C(=O)O | inactive
6 | CC(=O)OC(C)(C)C1CC=C(C)CC1 (centres undefined) | inactive
7 | COC(=O)c1ccccc1 | inactive
8 | CC12C=CCC1C1CCC3CC(=O)CCC3(C)C1CC2 (centres undefined) | inactive
9 | C=CCSCC=C | inactive
10 | CC(=O)C(C)=O | inactive
11 | CCCCCCCCOC(C)=O | inactive
12 | CCC=CCCO | inactive
13 | CC12C=CCC1C1CCC3=CC(=O)CCC3(C)C1CC2 (centres undefined) | inactive
14 | CCCCCCCOC(C)=O | inactive
15 | c1ccc(Oc2ccccc2)cc1 | inactive
16 | CCCCCCCC=CC=O | inactive
17 | COc1cc(C)ccc1O | inactive
18 | CC1=CCC(C(C)(C)O)CC1 (centres undefined) | inactive
19 | CCCCCCCC=O | inactive
20 | C=CCc1ccc(OC(C)=O)c(OC)c1 | inactive
21 | O=CCc1ccccc1 | inactive
22 | CC(C)CCC(=O)O | inactive
23 | CC(=O)OCC=C(C)CCC=C(C)C | inactive
24 | CC=Cc1ccc(O)c(OC)c1 | inactive
25 | O=C1CCCCCCCCCCCC(=O)OCCO1 | inactive
26 | CC(C)(C)c1ccc(CCC=O)cc1 | inactive
27 | CC1CCC(C(C)C)C(O)C1 (centres undefined) | inactive

Test system: T2, ORM2B
T2 sequence (whole entry): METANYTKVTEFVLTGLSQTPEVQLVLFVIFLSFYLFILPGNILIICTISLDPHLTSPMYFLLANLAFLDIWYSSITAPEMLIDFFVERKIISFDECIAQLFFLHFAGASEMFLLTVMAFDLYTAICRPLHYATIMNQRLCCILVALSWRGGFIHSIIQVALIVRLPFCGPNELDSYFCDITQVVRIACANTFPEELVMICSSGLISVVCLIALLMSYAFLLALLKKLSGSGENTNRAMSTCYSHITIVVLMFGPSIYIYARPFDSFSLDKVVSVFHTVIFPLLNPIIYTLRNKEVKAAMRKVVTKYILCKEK
Details: stereoisomer not certain
Outline: as §1

Row | Structure (SMILES) | odorant receptor agonist call
28 | CCCCCCCCCCC=O | inactive
29 | CCCCCCOC(=O)CCC | inactive
30 | CCC1(O)C2(C)CCC(C2)C1(C)C (centres undefined) | inactive
31 | CC1=NC(C)SC1C (centres undefined) | inactive
32 | CC(C)C(=O)O | inactive
33 | CC(=O)OC(C)(C)C1CC=C(C)CC1 (centres undefined) | inactive
34 | COC(=O)c1ccccc1 | inactive
35 | CC12C=CCC1C1CCC3CC(=O)CCC3(C)C1CC2 (centres undefined) | inactive
36 | C=CCSCC=C | inactive
37 | CC(=O)C(C)=O | inactive
38 | CCCCCCCCOC(C)=O | inactive
39 | CCC=CCCO | inactive
40 | CC12C=CCC1C1CCC3=CC(=O)CCC3(C)C1CC2 (centres undefined) | inactive
41 | CCCCCCCOC(C)=O | inactive
42 | c1ccc(Oc2ccccc2)cc1 | inactive
43 | CCCCCCCC=CC=O | inactive
44 | COc1cc(C)ccc1O | inactive
45 | CC1=CCC(C(C)(C)O)CC1 (centres undefined) | inactive
46 | CCCCCCCC=O | inactive
47 | C=CCc1ccc(OC(C)=O)c(OC)c1 | inactive
48 | O=CCc1ccccc1 | inactive
49 | CC(C)CCC(=O)O | inactive
50 | CC(=O)OCC=C(C)CCC=C(C)C | inactive
51 | CC=Cc1ccc(O)c(OC)c1 | inactive
52 | O=C1CCCCCCCCCCCC(=O)OCCO1 | inactive
53 | CC(C)(C)c1ccc(CCC=O)cc1 | inactive
54 | CC1CCC(C(C)C)C(O)C1 (centres undefined) | inactive
